Laboratory results reported in the supplement of paper PMC8728848.
This is one part of the list.

Assays:
Assay in all cases: glycan array binding signal (z-score within array); higher = stronger binding
Conditions in all cases: glycan notation: IUPAC condensed, linker removed
Gal(b1-4)Glc = target: Gal(b1-4)Glc
In short: (§1)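 From the Consortium for Functional Glycomics database, 3228 arrays were curated, keeping only those whose protein sequence was available. Binding is given as a within-array Z-score averaged across arrays sharing a protein sequence and across linkers. Negative Z-scores can be read as non-binding.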

Gal(b1-4)Glc6S = target: Gal(b1-4)Glc6S
In short: as §1

Gal(b1-4)GlcNAc = target: Gal(b1-4)GlcNAc
In short: as §1

[1] = target: Gal(b1-4)GlcNAc(a1-6)Gal(b1-4)GlcNAc
In short: as §1

Gal(b1-4)GlcNAc(b1-2)Man = target: Gal(b1-4)GlcNAc(b1-2)Man
In short: as §1

[2] = target: Gal(b1-4)GlcNAc(b1-2)Man(a1-3)Man(b1-4)GlcNAc(b1-4)GlcNAc
In short: as §1

[3] = target: Gal(b1-4)GlcNAc(b1-2)Man(a1-3)[Gal(b1-4)GlcNAc(b1-2)Man(a1-6)]Man(b1-4)GlcNAc(b1-4)GlcNAc
In short: as §1

[4] = target: Gal(b1-4)GlcNAc(b1-2)Man(a1-3)[Gal(b1-4)GlcNAc(b1-2)Man(a1-6)]Man(b1-4)GlcNAc(b1-4)[Fuc(a1-6)]GlcNAc
In short: as §1

[5] = target: Gal(b1-4)GlcNAc(b1-2)Man(a1-3)[Gal(b1-4)GlcNAc(b1-2)Man(a1-6)][Gal(b1-4)GlcNAc(b1-4)]Man(b1-4)GlcNAc(b1-4)[Fuc(a1-6)]GlcNAc
In short: as §1

[6] = target: Gal(b1-4)GlcNAc(b1-2)Man(a1-3)[Gal(b1-4)GlcNAc(b1-2)Man(a1-6)][GlcNAc(b1-4)]Man(b1-4)GlcNAc(b1-4)[Fuc(a1-6)]GlcNAc
In short: as §1

[7] = target: Gal(b1-4)GlcNAc(b1-2)Man(a1-3)[GlcNAc(b1-2)Man(a1-6)]Man(b1-4)GlcNAc(b1-4)GlcNAc
In short: as §1

[8] = target: Gal(b1-4)GlcNAc(b1-2)Man(a1-3)[GlcNAc(b1-4)][Gal(b1-4)GlcNAc(b1-2)Man(a1-6)]Man(b1-4)GlcNAc(b1-4)GlcNAc
In short: as §1

[9] = target: Gal(b1-4)GlcNAc(b1-2)Man(a1-3)[Man(a1-6)]Man(b1-4)GlcNAc(b1-4)GlcNAc
In short: as §1

[10] = target: Gal(b1-4)GlcNAc(b1-2)Man(a1-6)Man(b1-4)GlcNAc(b1-4)GlcNAc
In short: as §1

[11] = target: Gal(b1-4)GlcNAc(b1-2)Man(a1-6)[GlcNAc(b1-2)Man(a1-3)]Man(b1-4)GlcNAc(b1-4)GlcNAc
In short: as §1

[12] = target: Gal(b1-4)GlcNAc(b1-2)Man(a1-6)[Man(a1-3)]Man(b1-4)GlcNAc(b1-4)GlcNAc
In short: as §1

[13] = target: Gal(b1-4)GlcNAc(b1-2)[Gal(b1-4)GlcNAc(b1-4)]Man(a1-3)[Gal(b1-4)GlcNAc(b1-2)Man(a1-6)]Man(b1-4)GlcNAc(b1-4)GlcNAc
In short: as §1

[14] = target: Gal(b1-4)GlcNAc(b1-2)[Gal(b1-4)GlcNAc(b1-4)]Man(a1-3)[Gal(b1-4)GlcNAc(b1-2)[Gal(b1-4)GlcNAc(b1-6)]Man(a1-6)]Man(b1-4)GlcNAc(b1-4)GlcNAc
In short: as §1

[15] = target: Gal(b1-4)GlcNAc(b1-2)[Gal(b1-4)GlcNAc(b1-4)]Man(a1-3)[GlcNAc(b1-4)][Gal(b1-4)GlcNAc(b1-2)Man(a1-6)]Man(b1-4)GlcNAc(b1-4)GlcNAc
In short: as §1

[16] = target: Gal(b1-4)GlcNAc(b1-2)[Gal(b1-4)GlcNAc(b1-4)]Man(a1-3)[GlcNAc(b1-4)][Gal(b1-4)GlcNAc(b1-2)[Gal(b1-4)GlcNAc(b1-6)]Man(a1-6)]Man(b1-4)GlcNAc(b1-4)GlcNAc
In short: as §1

[17] = target: Gal(b1-4)GlcNAc(b1-2)[Gal(b1-4)GlcNAc(b1-6)]Man(a1-6)[Gal(b1-4)GlcNAc(b1-2)Man(a1-3)]Man(b1-4)GlcNAc(b1-4)GlcNAc
In short: as §1

[18] = target: Gal(b1-4)GlcNAc(b1-2)[Gal(b1-4)GlcNAc(b1-6)]Man(a1-6)[Gal(b1-4)GlcNAc(b1-2)Man(a1-3)]Man(b1-4)GlcNAc(b1-4)[Fuc(a1-6)]GlcNAc
In short: as §1

B1: Tp0751, 83732 (protein)
chain: MSYYHHHHHHLESTSLYKKAGFQHGHVPPRRIPPHDTFGALPTAALPSNARDTAAHPSDTADNTSGSSTTTDPRSHGNAPPAPVGGAAQTHTQPPVQTAMRIALWNRATHGEQGALQHLLAGLWIQTEISPNSGDIHPLLFFDREHAEITFSRASVQEIFLVDSAHTHRKTVSFLTRNTAISSIRRRLEVTFESHEVIHVRAVEDVARLKIGSTSMWDGQYTRYHAGPASAPSP
- glycan array binding signal (z-score) (Gal(b1-4)Glc): -0.383
- glycan array binding signal (z-score) (Gal(b1-4)Glc6S): 0.366
- glycan array binding signal (z-score) (Gal(b1-4)GlcNAc): 0.21
- glycan array binding signal (z-score) [1]: -0.369
- glycan array binding signal (z-score) (Gal(b1-4)GlcNAc(b1-2)Man): 0.117
- glycan array binding signal (z-score) [2]: 0.237
- glycan array binding signal (z-score) [3]: -0.395
- glycan array binding signal (z-score) [4]: -0.088
- glycan array binding signal (z-score) [5]: -0.093
- glycan array binding signal (z-score) [6]: -0.561
- glycan array binding signal (z-score) [7]: -0.071
- glycan array binding signal (z-score) [8]: -0.493
- glycan array binding signal (z-score) [9]: -0.826
- glycan array binding signal (z-score) [10]: -0.083
- glycan array binding signal (z-score) [11]: -0.456
- glycan array binding signal (z-score) [12]: -0.482
- glycan array binding signal (z-score) [13]: 0.091
- glycan array binding signal (z-score) [14]: 0.31
- glycan array binding signal (z-score) [15]: 0.421
- glycan array binding signal (z-score) [16]: 0.259
- glycan array binding signal (z-score) [17]: -0.642
- glycan array binding signal (z-score) [18]: -0.483
